This note sets out measurements from patent US20240301069A1.

Protein sequences, listed by entry. Tags and fused reporters are not part of them.
UniProt Q9NZQ7: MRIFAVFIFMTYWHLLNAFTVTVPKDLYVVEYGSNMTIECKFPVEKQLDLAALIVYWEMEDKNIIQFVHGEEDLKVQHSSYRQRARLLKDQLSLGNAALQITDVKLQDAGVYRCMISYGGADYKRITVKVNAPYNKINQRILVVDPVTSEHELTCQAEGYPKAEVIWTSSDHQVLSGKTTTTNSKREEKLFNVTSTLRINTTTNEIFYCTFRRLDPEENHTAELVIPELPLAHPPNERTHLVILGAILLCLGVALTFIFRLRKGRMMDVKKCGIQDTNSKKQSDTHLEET

Test [1] deals with recombinant human PD-L1 protein carrying a hFc label (human) (UniProt Q9NZQ7). Kind of test: ELISA on coated hPD-L1 hFc, antibody at 10 µg/mL. For orientation: An ELISA detects its analyte on a solid surface through an enzyme-linked reagent.
For test [2] the target is unchanged. The experiment in a line: ELISA, hPD-L1 hFc coated at 1 µg/mL, antibody at 10 µg/mL, HRP goat anti-mouse IgG.

Substitutions are numbered along the chain they refer to. These are yes or no findings as the source states them, for the method shown. Some binding calls cover weakened binding; strength is not graded here.

B1: F016-870 (antibody, V domains shown)
VH: EVQLQESGPSLVKPSQTLSLTCSVTGDSITSGYWNWIRKFPGNKLEYMGYISYTGSTYQNPSLKSRISFTRDTSKNQYYLQLSSVTTEDTATYYCARSRAWIRTYFDYWGQGTTLTVSS
VL: EIVLTQSPALMAASPGEKVTITCSVSSSISSSNLHWYQQKSETSPKPWIYGTSNLASGVPVRFSGSGSGTSYSLTISSMEAEDAATYYCQQWSSYPLTFGAGTKLELKR
On to B1, for which the binding result in test [1] and in test [2] was “binds” throughout.

B2: F016-21 (antibody, V domains shown)
VH: EVQLQQSGPELVKPGASVKMSCKASGYTFTDYVMHWVKQKPGQGLEWIGYINPYNDGTKFNEKFKGKATLTSDKSSSTAYMELSSLTSEDSAVYYCAKQTLDYWGQGTSVTVSS
VL: DIVLTQSPASLAVSLGQRATISCRASESVEYFGTTLMQWYQQRPGQPPKLLIYAASNVESGVPARFSGSGSGTDFSLNIHPVEEDDIAMYFCQQSRKVPYTFGGGTKLEIKR
In the case of B2, the binding result in test [1] and in test [2] was “binds” throughout.

B3: F016-193 (antibody, V domains shown)
VH: B2 VH with D31S, Y54H, T58N, F60Y, T78S, L101M
VL: B2 VL with I21L, Y31F, F32Y, Y40F, R43K
On to B3, for which the binding entry in test [1] and in test [2] was “binds” throughout.
